36 molecules from the supplement of paper PMC11348887 can be followed below.

Structures can show the parent of a compound that is named as a salt. The list shows a part of the results. Most values lie at the level of the controls, where differences are scatter.

The experiment has as its system hPSC-derived cortical neurons (WA09). The experiment in a line: total neurite length per nucleus (MAP2) z-score; higher = more neurite growth. The following applies: 5 µM; treatment: days 7-14 after plating, readout day 21.
In the case of `Cn1cc(-c2ccc(F)c(C(F)(F)F)c2)nc1C1CCN(c2ncnc3[nH]ncc23)CC1`, the “total neurite length per nucleus (z-score)” value was found to be 0.0273.

For `c1cc(-c2cnn3cc(-c4ccc(OCCN5CCCCC5)cc4)cnc23)ccn1` [Dorsomorphin (Compound C)], the “total neurite length per nucleus (z-score)” value is 0.0887.

On to `CN1CCN(C2=Nc3ccccc3Oc3ccc(Cl)cc32)CC1` [Loxapine Succinate], for which the “total neurite length per nucleus (z-score)” value turned out to be 0.908.

For the molecule `NC(=O)c1cnc2[nH]ccc2c1NC1[C@@H]2CC3C[C@H]1CC(O)(C3)C2` (stereo partly specified), the “total neurite length per nucleus (z-score)” value was 0.573.

Regarding `CN(C)c1cc(NC(=O)CNC(C)(C)C)c(O)c2c1C[C@H]1C[C@H]3[C@H](N(C)C)C(O)=C(C(N)=O)C(=O)[C@@]3(O)C(O)=C1C2=O` [Tigecycline], the “total neurite length per nucleus (z-score)” value was determined as 0.295.

`Cn1c(Nc2ccc(C(F)(F)F)cc2)nc2cc(Oc3ccnc(-c4ncc(C(F)(F)F)[nH]4)c3)ccc21`: the “total neurite length per nucleus (z-score)” value is -0.384.

As to `CC(=O)NO` [Acetohydroxamic acid], the “total neurite length per nucleus (z-score)” value amounted to 0.367.

For the molecule `CC(CNC(=O)c1cccnc1)NC(=O)c1cccnc1` (stereo unspecified) [Nicaraven], the “total neurite length per nucleus (z-score)” value is -1.21.

`O=C(CCN1CCN(C(=O)OCc2cc(Cl)cc(Cl)c2)CC1)c1ccc2[nH]c(=O)oc2c1`: the “total neurite length per nucleus (z-score)” value turned out to be 0.0851.

Consider `CN1[C@@H]2CC[C@H]1C[C@@H](OC(=O)c1c[nH]c3ccccc13)C2` [Tropisetron], for which the “total neurite length per nucleus (z-score)” value was determined as 0.626.

For the molecule `CCS(=O)(=O)Nc1ccc2c(c1)/C(=C(/Nc1ccc(CN3CCCCC3)cc1)c1ccccc1)C(=O)N2` [Hesperadin], the “total neurite length per nucleus (z-score)” value is -0.541.

For the molecule `CC(CN(C)C)CN1c2ccccc2CCc2ccccc21` (stereo unspecified) [Trimipramine Maleate], the “total neurite length per nucleus (z-score)” value was -1.56.

For the molecule `CC(=O)O[C@]1(C(C)=O)CC[C@H]2[C@@H]3C=C(Cl)C4=CC(=O)[C@@H]5C[C@@H]5[C@]4(C)[C@H]3CC[C@@]21C` [Cyproterone Acetate], the “total neurite length per nucleus (z-score)” value is -1.61.

In the case of `CC(C(=O)O)c1cccc(Oc2ccccc2)c1` (stereo unspecified) [Fenoprofen calcium hydrate], the “total neurite length per nucleus (z-score)” value came out at 0.351.

With `CN[C@H]1CN(c2ccc3c(=O)c(C(=O)O)cn(-c4nccs4)c3n2)C[C@@H]1OC` [Voreloxin (SNS-595)], the “total neurite length per nucleus (z-score)” value is 2.44.

In the case of `CN1CCN(C(=O)C2C(C(=O)O)[C@H]3CC[C@@H]2O3)CC1` (stereo partly specified), the “total neurite length per nucleus (z-score)” value stood at 0.18.

As to `c1ccc2c(Oc3nc(Nc4ccc(N5CCOCC5)cc4)c4ncn(C5CCCCC5)c4n3)cccc2c1` [Purmorphamine], the “total neurite length per nucleus (z-score)” value was -0.375.

Turning to `C[C@H](NC(=O)C(=O)Nc1ccccc1C(C)(C)C)C(=O)N[C@@H](CC(=O)O)C(=O)COc1c(F)c(F)cc(F)c1F` [Emricasan], the “total neurite length per nucleus (z-score)” value came to 0.798.

In the case of `NC(=O)c1cnc(N[C@@H]2CCCC[C@@H]2N)nc1Nc1cccc(-n2nccn2)c1`, the “total neurite length per nucleus (z-score)” value came out at 0.408.

Turning to `CC(C)c1cc(-c2n[nH]c(=O)n2-c2ccc3c(ccn3C)c2)c(O)cc1O` [Ganetespib (STA-9090)], the “total neurite length per nucleus (z-score)” value is -2.91.

Consider `NC(=O)CCCSc1nc(N)nc(-c2c(Cl)cc3c4c(cccc24)COC3)n1`, for which the “total neurite length per nucleus (z-score)” value is -5.65.

As for `Cc1ccccc1C(C(=O)NC1CCCCC1)N(C(=O)Cn1ccnc1C)c1cccc(F)c1` (stereo unspecified), the “total neurite length per nucleus (z-score)” value is -0.359.

With `CCc1cc(C(N)=S)ccn1` [Ethionamide], the “total neurite length per nucleus (z-score)” value came to 1.68.

For `O=C(O)[C@H]1CSC(c2nc3ccc(O)cc3s2)=N1` [D-Luciferin], the “total neurite length per nucleus (z-score)” value came to 0.457.

As for `CCn1cc(C(=O)O)c(=O)c2cc(F)c(N3CCN(C)CC3)cc21` [Pefloxacin Mesylate], the “total neurite length per nucleus (z-score)” value was -0.446.

Consider `C=CCc1ccc(O)c(-c2cc(CC=C)ccc2O)c1` [Magnolol], for which the “total neurite length per nucleus (z-score)” value was 0.0318.

As to `CCOc1cc(N2CCC(O)CC2)ccc1Nc1ncc2c(n1)N(C)c1ccccc1C(=O)N2C`, the “total neurite length per nucleus (z-score)” value is -1.83.

Consider `Cc1cc(NC(=O)C2=C(O)c3ccccc3S(=O)(=O)N2C)no1` [Isoxicam], for which the “total neurite length per nucleus (z-score)” value was 0.411.

Turning to `CCCCCCCCCCC[C@@H](C[C@@H]1OC(=O)[C@H]1CCCCCC)OC(=O)[C@H](CC(C)C)NC=O` [Orlistat], the “total neurite length per nucleus (z-score)” value is -0.16.

As to `N#Cc1ccc(-c2csc(NN=C3CCCC3)n2)cc1` [Remodelin], the “total neurite length per nucleus (z-score)” value was 0.379.

As to `O[C@H]1[C@H](O)[C@@H](O)[C@H](O)[C@@H](O)[C@H]1O` [i-Inositol], the “total neurite length per nucleus (z-score)” value came out at 0.118.

Turning to `O=C(OCc1ccccc1)c1ccccc1` [Benzyl benzoate], the “total neurite length per nucleus (z-score)” value is 0.572.

For the molecule `N=C(N)NC(=N)N1CCOCC1` [Moroxydine HCl], the “total neurite length per nucleus (z-score)” value is 1.84.

Consider `OCc1cc(C(O)CNCCCCCCOCCCCc2ccccc2)ccc1O` (stereo unspecified) [Salmeterol Xinafoate], for which the “total neurite length per nucleus (z-score)” value is -0.543.

For `CC1(C)O[C@@H]2C[C@H]3[C@@H]4CCC5=CC(=O)CC[C@]5(C)[C@@]4(F)[C@@H](O)C[C@]3(C)[C@]2(C(=O)CCl)O1` [Halcinonide], the “total neurite length per nucleus (z-score)” value is -0.293.

As to `O=C(O)c1cc(I)ccc1NC(=O)[C@H](Cc1ccccc1)NCc1ccccc1`, the “total neurite length per nucleus (z-score)” value was -0.471.
